Test results taken from PubChem BioAssay (EPA / NIEHS).
“And” between values parts separate entries of the source, which are not always exact repeats. Identical values can stand only once. Inconclusive results, whose numbers are uncertain, are shown with a selection of clear calls. For part of these data: Potencies beside an inconclusive call are fits to weak or partial responses and may not hold up. The source made the active and inactive calls. Rule for the calls: active = hit-call score of the fitted dose curve at least 0.9, where 1 is the maximum; inconclusive = response in the unintended direction; inactive = score below 0.9.

Chains of the proteins cited; added tags and fusions are not shown. Lines headed by an entry give the natural chain unless they say otherwise; changes in a name come on top.
UniProt P06401: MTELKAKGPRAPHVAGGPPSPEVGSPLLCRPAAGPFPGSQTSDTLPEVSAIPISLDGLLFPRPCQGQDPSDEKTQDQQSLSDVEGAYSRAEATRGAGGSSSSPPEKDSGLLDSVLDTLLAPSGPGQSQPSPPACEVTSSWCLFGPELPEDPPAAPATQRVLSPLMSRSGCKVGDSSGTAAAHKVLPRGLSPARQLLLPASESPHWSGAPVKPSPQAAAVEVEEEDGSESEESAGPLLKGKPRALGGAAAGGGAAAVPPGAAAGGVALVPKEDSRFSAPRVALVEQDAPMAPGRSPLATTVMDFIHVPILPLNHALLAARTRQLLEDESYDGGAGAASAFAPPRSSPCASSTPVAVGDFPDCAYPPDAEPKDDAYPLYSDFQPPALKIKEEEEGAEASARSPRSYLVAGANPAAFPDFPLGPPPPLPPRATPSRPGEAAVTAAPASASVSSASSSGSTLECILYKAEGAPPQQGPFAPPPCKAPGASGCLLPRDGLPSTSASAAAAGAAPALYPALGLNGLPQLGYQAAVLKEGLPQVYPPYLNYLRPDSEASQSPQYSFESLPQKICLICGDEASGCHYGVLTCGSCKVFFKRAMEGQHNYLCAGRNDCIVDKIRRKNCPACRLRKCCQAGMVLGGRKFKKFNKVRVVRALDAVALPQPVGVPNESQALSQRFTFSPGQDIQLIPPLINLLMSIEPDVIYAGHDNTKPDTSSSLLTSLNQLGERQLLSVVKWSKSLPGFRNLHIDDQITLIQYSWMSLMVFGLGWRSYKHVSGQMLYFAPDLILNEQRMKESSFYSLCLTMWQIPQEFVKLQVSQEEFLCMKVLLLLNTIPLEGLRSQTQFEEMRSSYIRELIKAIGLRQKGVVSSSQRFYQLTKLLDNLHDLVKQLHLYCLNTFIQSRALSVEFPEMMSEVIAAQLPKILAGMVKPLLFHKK
UniProt P60484: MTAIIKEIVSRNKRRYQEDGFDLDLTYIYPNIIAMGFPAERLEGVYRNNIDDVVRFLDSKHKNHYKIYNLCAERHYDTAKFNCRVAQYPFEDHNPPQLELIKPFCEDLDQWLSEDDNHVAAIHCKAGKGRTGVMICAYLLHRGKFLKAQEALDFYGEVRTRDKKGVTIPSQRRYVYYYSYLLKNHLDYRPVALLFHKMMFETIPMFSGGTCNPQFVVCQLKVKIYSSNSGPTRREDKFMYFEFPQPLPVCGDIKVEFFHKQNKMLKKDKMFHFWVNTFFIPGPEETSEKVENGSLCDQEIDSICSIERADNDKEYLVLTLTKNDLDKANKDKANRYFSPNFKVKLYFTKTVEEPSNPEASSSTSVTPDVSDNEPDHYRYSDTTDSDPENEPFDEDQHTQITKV
UniProt Q9UNQ0: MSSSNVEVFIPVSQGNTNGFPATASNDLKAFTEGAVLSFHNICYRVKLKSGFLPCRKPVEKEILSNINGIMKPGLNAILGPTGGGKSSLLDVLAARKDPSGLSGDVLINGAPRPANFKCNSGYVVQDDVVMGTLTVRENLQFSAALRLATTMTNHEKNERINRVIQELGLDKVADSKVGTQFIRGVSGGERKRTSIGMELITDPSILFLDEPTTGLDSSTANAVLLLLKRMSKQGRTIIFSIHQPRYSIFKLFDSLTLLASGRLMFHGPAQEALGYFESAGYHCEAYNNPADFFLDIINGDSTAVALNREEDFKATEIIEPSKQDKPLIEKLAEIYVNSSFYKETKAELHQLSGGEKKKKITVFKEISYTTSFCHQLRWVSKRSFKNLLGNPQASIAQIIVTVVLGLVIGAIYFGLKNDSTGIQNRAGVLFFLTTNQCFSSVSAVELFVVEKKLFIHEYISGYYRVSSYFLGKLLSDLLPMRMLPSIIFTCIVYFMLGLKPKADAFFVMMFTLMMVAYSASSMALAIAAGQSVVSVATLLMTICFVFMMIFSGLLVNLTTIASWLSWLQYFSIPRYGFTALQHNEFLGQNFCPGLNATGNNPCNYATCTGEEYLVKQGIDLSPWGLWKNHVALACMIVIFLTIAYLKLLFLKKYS
UniProt P20813: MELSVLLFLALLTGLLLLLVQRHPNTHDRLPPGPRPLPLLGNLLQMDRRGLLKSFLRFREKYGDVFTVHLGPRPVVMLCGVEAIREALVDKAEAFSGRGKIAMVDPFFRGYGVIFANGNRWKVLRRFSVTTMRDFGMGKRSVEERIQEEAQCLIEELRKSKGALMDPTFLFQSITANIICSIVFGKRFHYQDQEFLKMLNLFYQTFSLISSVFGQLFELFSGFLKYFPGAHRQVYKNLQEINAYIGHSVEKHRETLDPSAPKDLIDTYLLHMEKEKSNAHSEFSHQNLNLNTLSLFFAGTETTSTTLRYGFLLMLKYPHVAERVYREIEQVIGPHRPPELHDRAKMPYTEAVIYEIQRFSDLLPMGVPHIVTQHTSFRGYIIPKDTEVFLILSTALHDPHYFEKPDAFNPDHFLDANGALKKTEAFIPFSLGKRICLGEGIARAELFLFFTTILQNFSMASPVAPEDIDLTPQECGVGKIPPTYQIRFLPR
UniProt P33261, whole entry, looked up: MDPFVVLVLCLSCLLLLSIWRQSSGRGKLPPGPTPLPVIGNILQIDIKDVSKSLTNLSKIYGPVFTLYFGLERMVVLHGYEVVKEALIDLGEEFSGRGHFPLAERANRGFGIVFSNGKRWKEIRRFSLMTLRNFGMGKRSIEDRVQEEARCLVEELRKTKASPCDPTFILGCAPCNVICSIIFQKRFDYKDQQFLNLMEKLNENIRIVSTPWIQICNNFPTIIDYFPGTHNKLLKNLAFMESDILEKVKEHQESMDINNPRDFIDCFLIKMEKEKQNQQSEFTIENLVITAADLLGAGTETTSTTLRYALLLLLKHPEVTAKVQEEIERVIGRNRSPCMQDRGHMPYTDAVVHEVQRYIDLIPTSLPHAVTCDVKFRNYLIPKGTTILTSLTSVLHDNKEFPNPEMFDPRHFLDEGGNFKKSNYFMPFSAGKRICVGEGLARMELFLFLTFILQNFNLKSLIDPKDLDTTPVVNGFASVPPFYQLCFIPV
UniProt Q92731, whole entry, looked up: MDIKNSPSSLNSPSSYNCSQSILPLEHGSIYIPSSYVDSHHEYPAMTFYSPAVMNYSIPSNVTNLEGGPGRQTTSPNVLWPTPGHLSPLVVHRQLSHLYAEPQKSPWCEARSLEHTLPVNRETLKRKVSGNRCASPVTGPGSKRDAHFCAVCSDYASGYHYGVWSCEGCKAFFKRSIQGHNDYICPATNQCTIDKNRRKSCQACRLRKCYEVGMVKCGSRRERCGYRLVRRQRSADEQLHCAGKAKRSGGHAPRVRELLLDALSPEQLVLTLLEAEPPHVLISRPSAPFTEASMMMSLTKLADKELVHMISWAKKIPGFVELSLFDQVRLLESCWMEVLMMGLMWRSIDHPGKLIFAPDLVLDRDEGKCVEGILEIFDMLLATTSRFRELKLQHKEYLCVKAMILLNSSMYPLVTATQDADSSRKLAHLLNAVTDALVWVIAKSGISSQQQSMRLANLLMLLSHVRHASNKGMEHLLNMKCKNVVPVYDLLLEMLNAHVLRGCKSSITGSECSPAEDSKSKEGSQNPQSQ

How the values were obtained:
PGR (gene 5241) = PGR (gene 5241) (UniProt P06401); assay: NVS_NR_hPR: NovaScreen (NVS) Nuclear Receptor Binding Assay for human Progestron Receptor (PR) (AID 2283360);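 note: active means loss of bound radioligand signal versus DMSO baseline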
Procedure, shortened: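 Competitive displacement of a labelled radioligand from T47D-derived receptor protein is measured in a cell-free format. Initial testing uses 25 uM in duplicate, with positive and negative controls on every plate.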

[1] = STM_H9_OrnCyssISnorm_ratio: Stemina devTOX quickPredict H9 human embryonic stem cell (hESC)-based Assay for Ornithine (ORN):Cystine (CYSS) Ratio (AID 2283714)
Procedure, shortened: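 Undifferentiated H9 hESCs exposed 72 h, media and compound replaced every 24 h; final 24-h conditioned media deproteinized and analysed by UPLC-HRMS against C13 spike-ins. Value is the internal-standard-normalized ORN/CYSS ratio versus 0.1% DMSO.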

[2] = Tanguay_ZF_120hpf_CFIN_legacy: (Legacy) Oregon State University Tanguay Lab 120 Hour Post-fertilization zebrafish Assay for Caudal Fin Malformation (AID 2283649)
Procedure, shortened: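 Binary brightfield scoring of caudal fin defects at 120 hpf after static, light-shielded exposure at 28C from 6 hpf. Tropical 5D embryos, chorion removed with pronase at 4 hpf, final DMSO 0.64%.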

[3] = CCTE_Shafer_MEA_acute_AB: CCTE's Alamar Blue Assay for Cytotoxicity in the Neural Acute Assay, Shafer Lab (AID 2284069);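 note: active compounds lower the viability signal compared with DMSO wells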
Procedure, shortened: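 Cytotoxicity endpoint for acute MEA exposures of primary rat cortical neurons on day 13 or 15. Resazurin reduction is read fluorescently at 544/590 nm, with DMSO as the negative-control baseline.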

[4] = target: human Phosphatase and Tensin Homolog (PTEN), PTEN (gene 5728) (UniProt P60484); assay: NVS_ENZ_hPTEN: NovaScreen (NVS) Enzymatic Assay for human Phosphatase and Tensin Homolog (PTEN) (AID 2283203)
Procedure, shortened: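 Cell-free recombinant human PTEN with fluorescent substrate; product separated by electrophoretic mobility shift and read by fluorescence 1 h after dosing. Primary screen in duplicate at 25 uM, actives followed in concentration series versus DMSO.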

[5] = read-out: sulfotransferase (SULT2A), SULT2A1 (gene 6822); assay: CLD_SULT2A_6hr: CellzDirect (CLD) Gene Expression Assay for sulfotransferase (SULT2A) at 6 hours (AID 2283669);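 note: hits raise transcript level above the DMSO vehicle baseline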
Procedure, shortened: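 Primary human hepatocytes from two donor preparations were dosed daily with chemicals or 0.2% DMSO and harvested at 6 h. Transcript induction read by qNPA chemiluminescence, fitted for gain of signal relative to DMSO; morphology-based cytotoxicity annotated.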

[6] = CCTE_Mundy_HCI_hNP1_Pro_ResponderAvgInten: CCTE's Proliferation Assay in human neuroprogenitor cells, Mundy Lab (AID 2284224);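 note: human neural progenitor cells hNP1 derived from WA09 embryonic stem cells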
Procedure, shortened: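 Proliferation read as average intensity of BrdU-positive cells, imaged at 26.25 h post-dosing: chemical exposure started after 40–44 h culture, BrdU during final 4 h, paraformaldehyde fixation. Positive-direction fit relative to DMSO.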

[7] = CCTE_Mundy_HCI_Cortical_NOG_NeuronCount: CCTE's Neurite Outgrowth Assay in rat cortical cells for Neuron Count, Mundy Lab (AID 2284236);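 note: neurons counted by imaging betaIII-tubulin and Hoechst stained cortical cells; cells exposed to compound for about 48 hours before fixation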
Procedure, shortened: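 Read-out: neuron number by high-content imaging of betaIII-tubulin (Alexa Fluor-488) and Hoechst-labelled rat primary cortical cells.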

[8] = read-out: ABC Transporter (ABCB1), ABCB1 (gene 5243); assay: CLD_ABCB1_6hr: CellzDirect (CLD) Gene Expression Assay for ABC Transporter (ABCB1) at 6 hours (AID 2283659);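 for outcome: hits raise ABCB1 transcript above the DMSO vehicle baseline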
Procedure, shortened: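 Primary human hepatocytes (two donor preparations) dosed daily for two days with chemicals at multiple concentrations, 0.2% DMSO vehicle; harvested 6 h post-dose. ABCB1 mRNA induction quantified by qNPA chemiluminescence; gain-of-signal fitted versus DMSO.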

[9] = read-out: Broad substrate specificity ATP-binding cassette transporter ABCG2 (Homo sapiens) (UniProt Q9UNQ0); assay: CLD_ABCG2_6hr: CellzDirect (CLD) Gene Expression Assay for ABC Transporter (ABCG2) at 6 hours (AID 2283660)
Procedure, shortened: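 Primary human hepatocytes dosed daily with chemicals at multiple concentrations (0.2% DMSO vehicle), harvested 6 h after dosing. ABCG2 mRNA induction read by quantitative nuclease protection assay (qNPA) chemiluminescence; gain of signal fitted against DMSO baseline.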

[10] = read-out: xenobiotic metabolism (CYP1A1), CYP1A1 (gene 1543); assay: CLD_CYP1A1_24hr: CellzDirect (CLD) Gene Expression Assay for xenobiotic metabolism (CYP1A1) at 24 hours (AID 2283673);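 note: CYP1A1 mRNA level by quantitative nuclease protection with chemiluminescence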
Procedure, shortened: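 Primary human hepatocytes dosed daily with fresh solutions in 0.2% DMSO vehicle. mRNA measured at 24 h by quantitative nuclease protection assay with chemiluminescence; gain-of-signal fit versus DMSO, with morphology-based cytotoxicity flags.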

[11] = read-out: Cytochrome P450 2B6 (Homo sapiens) (UniProt P20813); assay: CLD_CYP2B6_48hr: CellzDirect (CLD) Gene Expression Assay for xenobiotic metabolism (CYP2B6) at 48 hours (AID 2283699);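 note: actives raise transcript level above DMSO so potency reflects induction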
Procedure, shortened: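 Primary human hepatocytes dosed daily for two days over multiple concentrations, 0.2% DMSO vehicle; CYP2B6 mRNA quantified at 48 h by qNPA chemiluminescence. Induction fitted as gain of signal versus DMSO; cytotoxicity annotated by morphology.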

[12] = CLD_ACTIN_48hr: CellzDirect (CLD) Gene Expression Assay for Baseline Control (Actin) at 48 hours (AID 2283702)
Procedure, shortened: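 Primary human hepatocytes (two donor preparations) dosed daily for two days with ToxCast chemicals at multiple concentrations versus 0.2% DMSO vehicle; harvested at 48 h. Actin mRNA measured as a background control by quantitative nuclease protection assay with chemiluminescence.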

[13] = read-out: alkyl and aryl transferase (GSTA2), GSTA2 (gene 2939); assay: CLD_GSTA2_48hr: CellzDirect (CLD) Gene Expression Assay for alkyl and aryl transferase (GSTA2) at 48 hours (AID 2283708);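 note: active means mRNA induction above DMSO vehicle baseline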
Procedure, shortened: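 Primary human hepatocytes dosed daily for two days (0.2% DMSO vehicle), harvested at 48 h. GSTA2 mRNA induction measured by quantitative nuclease protection assay with chemiluminescent imaging, fitted for gain of signal relative to DMSO.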

[14] = read-out: sulfotransferase (SULT2A), SULT2A1 (gene 6822); assay: CLD_SULT2A_48hr: CellzDirect (CLD) Gene Expression Assay for sulfotransferase (SULT2A) at 48 hours (AID 2283710);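 note: hits raise SULT2A1 transcript above the 0.2% DMSO vehicle baseline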
Procedure, shortened: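 Primary human hepatocytes (two donor preparations) dosed daily for two days with chemicals at multiple concentrations, vehicle 0.2% DMSO; SULT2A1 mRNA induction at 48 h by quantitative nuclease protection assay, chemiluminescent read-out, fitted for gain of signal versus DMSO.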

[15] = read-out: Cytochrome P450 2C19 (Homo sapiens) (UniProt P33261); assay: CLD_CYP2C19_24hr: CellzDirect (CLD) Gene Expression Assay for xenobiotic metabolism (CYP2C19) at 24 hours (AID 2283687)
Procedure, shortened: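 Primary human hepatocytes (two donor preparations) dosed daily with fresh test chemical in 0.2% DMSO vehicle; CYP2C19 mRNA induction measured at 24 h by quantitative nuclease protection assay with chemiluminescence, fitted for gain of signal versus DMSO.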

[16] = Tanguay_ZF_120hpf_SNOU_legacy: (Legacy) Oregon State University Tanguay Lab 120 Hour Post-fertilization zebrafish Assay for Snout Malformation (AID 2283637)
Procedure, shortened: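 Dechorionated tropical 5D wild-type zebrafish embryos exposed statically from 6 to 120 hpf at 28C, one per well, in 0.64% DMSO. Snout malformation scored as present/absent by brightfield at 120 hpf; dead embryos not scored.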

[17] = Tanguay_ZF_120hpf_BRAI_legacy: (Legacy) Oregon State University Tanguay Lab 120 Hour Post-fertilization zebrafish Assay for Brain Malformation (AID 2283641)
Procedure, shortened: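 Binary brightfield scoring of brain malformation at 120 hpf in Tropical 5D larvae held under static exposure at 28C (0.64% v/v DMSO), non-mortality endpoints skipped if dead. Positive control: 5uM trimethyltin chloride; fit versus DMSO.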

[18] = Tanguay_ZF_120hpf_AXIS_legacy: (Legacy) Oregon State University Tanguay Lab 120 Hour Post-fertilization zebrafish Assay for Body Axis Malformation (AID 2283635)
Procedure, shortened: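 Binary scoring of axis defects at 120 hpf under brightfield, fitted positive versus DMSO. Tropical 5D embryos, chorion removed by pronase at 4 hpf, were singly exposed in sealed, dark plates at 28C from 6 hpf; DMSO 0.64% final.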

[19] = target: Estrogen receptor beta (Homo sapiens) (UniProt Q92731); assay: OT_ER_ERbERb_0480: Odyssey Thera (OT) 8-hour HEK293T Protein-Complementation Assay for Estrogen Receptor-beta/-beta Homodimer (AID 2283357);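 note: active means signal gain over DMSO baseline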
Procedure, shortened: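 Fluorescence intensity, nuclear for agonists and nuclear plus cytoplasmic for antagonists, was quantified by laser scanning cytometry versus vehicle after 8 h treatment. The cells were HEK293T stably carrying ER beta LBD fragment-complementation partners.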

## CCOC(=O)c1ccccc1C(=O)OCC
PGR (gene 5241)
  AC50: inconclusive: 0.603 µM
[1]
  AC50: inconclusive: 0.97 µM

## O=C(N[C@H](c1ccccc1)[C@@H]1CN2CCC1CC2)c1c(Cl)ccc(C(F)(F)F)c1Cl
[2]
  AC50: inconclusive: 57.3 µM
[3]
  outcome: inactive

## c1cc[c]([Sb]([c]2ccccc2)[c]2ccccc2)cc1
[4]
  AC50: inconclusive: 25 µM

## CCOP(=O)(SC(C)CC)N1CCSC1=O (stereo unspecified)
[5]
  AC50: inconclusive: 1.96 µM
[6]
  AC50: inconclusive: 213 nM
[7]
  AC50: inconclusive: 0.00717 nM

## O=P(O)(O)CCCl
[8]
  AC50: inconclusive: 20 µM
[9]
  AC50: inconclusive: 0.000835 µM
[10]
  AC50: inconclusive: 20 µM
[11]
  outcome: inactive
[12]
  outcome: inactive
[13]
  AC50: inconclusive: 20 µM
[14]
  outcome: inactive

## CCNc1nc(NC(C)C)nc(SC)n1
[9]
  AC50: inconclusive: 0.0671 µM
[10]
  AC50: active: 3.97 µM
[15]
  AC50: inconclusive: 3.97 µM
[13]
  AC50: active: 8.73 µM

## CCN(CC)CCO
[16]
  AC50: inconclusive: 1.17 µM
[17]
  AC50: inconclusive: 2.86 µM
[2]
  outcome: inactive

## COc1ccc(C=O)cc1
[1]
  AC50: inconclusive: 0.425 µM

## Clc1cccc(Cl)c1Cl
[4]
  outcome: inactive
[3]
  AC50: inconclusive: 20 µM

## Cc1ccc(N)c(N)c1
[18]
  outcome: inactive

## CNC(=N[N+](=O)[O-])NCC1CCOC1 (stereo unspecified)
[7]
  AC50: inconclusive: 10.2 nM

## CN(C)c1ccc(C(=O)c2ccc(N(C)C)cc2)cc1
[16]
  AC50: active: 27.7 µM
[17]
  AC50: active: 48.7 µM

## O=c1n(Cl)c(=O)n(Cl)c(=O)n1Cl
[16]
  AC50: inconclusive: 56.4 µM
[8]
  AC50: inconclusive: 20 µM
[11]
  outcome: inactive

## CC(O)CN(CC(C)O)CC(C)O (stereo unspecified)
[19]
  AC50: inconclusive: 50 µM

## O=P(OCCCl)(OCCCl)OCCCl
[19]
  AC50: inconclusive: 50 µM
[16]
  outcome: inactive
[1]
  AC50: inconclusive: 10 µM

## O=[N+]([O-])C=Cc1ccccc1
[4]
  AC50: inconclusive: 0.148 µM

## O=C(O)c1c(Cl)ccc2cc(Cl)cnc12
[17]
  AC50: inconclusive: 33.7 µM
[8]
  outcome: inactive
[9]
  AC50: inconclusive: 20 µM

## CC(C)[C@@H](Nc1ccc(C(F)(F)F)cc1Cl)C(=O)OC(C#N)c1cccc(Oc2ccccc2)c1 (stereo partly specified)
[6]
  AC50: inconclusive: 45.1 nM
[7]
  AC50: inconclusive: 1.04 nM

## Nc1ncn[nH]1
[1]
  outcome: inactive

## CCCSP(=O)(OCC)Oc1ccc(Br)cc1Cl (stereo unspecified)
PGR (gene 5241)
  AC50: active: 25 µM
[18]
  outcome: inactive
[9]
  outcome: inactive
[12]
  AC50: inconclusive: 20 µM
[13]
  AC50: inconclusive: 32.7 µM
[6]
  AC50: inconclusive: 8.58 nM
[7]
  outcome: inactive

## CCCSC(=O)N(CCC)CCC
[2]
  outcome: inactive

## COP(=O)(NC(C)=O)SC (stereo unspecified)
PGR (gene 5241)
  AC50: inconclusive: 25 µM
[17]
  outcome: inactive
[10]
  AC50: inconclusive: 0.213 µM
[15]
  AC50: inconclusive: 20 µM
[14]
  outcome: inactive
[3]
  AC50: inconclusive: 15 µM
[6]
  AC50: inconclusive: 11 nM and inconclusive: 15 µM
[7]
  AC50: inconclusive: 1.2 nM and inconclusive: 22.2 nM

## COP(=S)(OC)Oc1cc(Cl)c(Cl)cc1Cl
[4]
  outcome: inactive

## CC(C)C1(C)N=C(c2ncccc2C(=O)O)NC1=O (stereo unspecified)
[8]
  outcome: inactive
[5]
  AC50: inconclusive: 20 µM
[10]
  AC50: inconclusive: 20 µM
[12]
  AC50: inconclusive: 20 µM
[14]
  AC50: inconclusive: 1.9 µM
[1]
  AC50: inconclusive: 50 µM
